# Screening data, single-dose tests

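Whole-cell growth test on Mycobacterium tuberculosis, read after 4 days in a medium based on cholesterol and the lipid DPPC; the read-out is not stated. Tested at 50 µM. The record gives no direction; compounds that gave an IC50 in retests scored well above the rest, so higher reads as more growth inhibition. Size under these conditions: about 69,000 compounds, about 370 of them at 50% or above in at least one test.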

Each number is a percent effect as filed.
The controls that fix the scale are not given in the record; negative values are as filed.
This is an unselected part of the compounds tested.
Two or more numbers in one place are separate tests of the same structure; such repeats can differ widely.

| # | SMILES | Percent Effect |
|---|---|---|
| 1 | `c1ccc2sc(NCC3(N4CCOCC4)CCSC3)nc2c1` (stereo unspecified) | 2.182% |
| 2 | `Cc1[nH]ncc1C(=O)N(CC(C)C)CC(O)c1ccc(F)cc1` (stereo unspecified) | -37.81% |
| 3 | `c1ccc(CCN2CCCC2c2ccnc(Nc3cnccn3)n2)cc1` (stereo unspecified) | 1.63% |
| 4 | `c1cncc(CN2CCc3c(CNc4nccs4)n[nH]c3C2)c1` | 24.61% |
| 5 | `Cc1cc2nc(CO[C@H]3CN(C4CCN(C)CC4)C[C@H]3F)[nH]c2cc1C` | -24% |
| 6 | `COc1ccc(CNC(=O)NCc2ccc(C)cc2)cn1` | -36.58% |
| 7 | `Cc1ccc(S(=O)(=O)NC[C@H]2OC[C@@H](NCc3ccccc3)[C@@H]2O)cc1` | -16.82% |
| 8 | `Cn1ccnc1-c1noc(NCc2ccc(Br)cc2)n1` | 0.676% |
| 9 | `O=C(c1ccco1)N1CCC[C@]2(C[C@H](Oc3ncccc3F)CO2)C1` | 11.29% |
| 10 | `Cc1ccc(NC(=O)NC(C)C(=O)N2CCS(=O)(=O)CC2)cc1` (stereo unspecified) | 17.11% |
| 11 | `Fc1ccc(-c2nc(CN3CCCC3Cn3cncn3)co2)cc1` (stereo unspecified) | -19.17% |
| 12 | `[H][C@@]12CCC(=O)N(CCc3c[nH]cn3)[C@]1([H])CCN(c1ncc(F)cn1)C2` | 9.892% |
| 13 | `Cc1ccc(NC(=O)C2CSCN2C(=O)c2ccncc2)c(C)c1` (stereo unspecified) | 3.001% |
| 14 | `CC(C)(C)c1nc(CN2CCCC(c3noc(C4CC4)n3)C2)no1` (stereo unspecified) | -9.582% |
| 15 | `O=C(c1c2c(N3CCCC3)ncnc2n2ccccc12)N1CCCC1` | -7.974% |
| 16 | `Cc1cc(C(F)F)nn1CC(=O)NCc1nccn1C` | -8.827% & -34.05% |
| 17 | `CN1C(=O)C(C)(C)COc2cc(NS(=O)(=O)c3ccccc3F)ccc21` | -17.17% |
| 18 | `Cc1ccc(S(=O)(=O)N2C[C@H](C3CC3)[C@@H](N)C2)cc1F` | 19.19% |
| 19 | `O=C(N[C@@H]1CCC[C@@H](n2ccnc2)[C@@H]1O)c1ccc2c(c1)CCCC2` | -4.78% |
| 20 | `Cc1cccc(CNCCOc2ccc(S(C)(=O)=O)cc2)c1` | -0.9199% & 12.35% |
| 21 | `CN(C)CC(=O)N1CCc2cccc(S(=O)(=O)N3CCOCC3)c2C1` | -0.8069% |
| 22 | `O=C(NC[C@H]1OC[C@@H](NC2CCCCC2)[C@@H]1O)c1cccs1` | 2.713% |
| 23 | `CN1CCc2c(c(COc3cncnc3)nn2CC2CC2)C1.O=C(O)C(F)(F)F` | -27.07% |
| 24 | `CC(=O)c1ccc(F)cc1-c1cc(NCCO)nc2[nH]ccc12` | -32.06% & -15.96% |
| 25 | `Cc1nc(C2CCCN2Cc2cc(Cl)c3c(c2)OCCO3)no1` (stereo unspecified) | 57.08% |
| 26 | `CC(CNC(=O)c1ccncc1F)Oc1ccc(F)cc1` (stereo unspecified) | -3.882% |
| 27 | `CCc1nc(CN2CCCC(N(C)CCc3cccs3)C2)no1` (stereo unspecified) | -23.62% |
| 28 | `Cn1c(NCC(=O)N2CCCC2)c(C#N)c(=O)n(C)c1=O` | -39.88% |
| 29 | `CCOC(=O)C1CSCCN1C(=O)c1ccc(-n2nc(C)cc2C)cc1` (stereo unspecified) | 6.179% |
| 30 | `NC(=O)c1ccc(NC(=O)Cn2cc(I)cn2)cc1` | 5.514% |
| 31 | `COc1ccc(C(=O)NCCCNc2ccc(C(F)(F)F)cn2)cc1` | 13.92% |
| 32 | `Fc1cc(CN2CCCC2Cn2cncn2)c2ncccc2c1` (stereo unspecified) | -23.63% |
| 33 | `Cc1ccc2oc(CNC(C)c3nnc4n3CCCC4)cc2c1` (stereo unspecified) | 0.5177% & -22.65% |
| 34 | `[H][C@]12CC[C@]([H])(CN(C)C1)N(C(=O)c1ccc(-c3ccccc3OC)cc1)C2` | 10.17% |
| 35 | `CCN(C(=O)c1ccc2nnc(C3CCN(C)C3)n2c1)C(C)C.O=C(O)C(F)(F)F` (stereo unspecified) | -17.01% |
| 36 | `N#CC(Sc1nnnn1C1CCOCC1)C1CCCCC1` (stereo unspecified) | 13.89% |
| 37 | `Cc1nc(CN2CCCN(Cc3nccn3C(C)C)CC2)no1` | 10.11% |
| 38 | `CN(Cc1cn2ccccc2c1C#N)C1CCCN(c2cccnn2)C1` (stereo unspecified) | 18.23% |
| 39 | `O=C(NCCc1c[nH]cn1)C1CCCN(C2CCOCC2)C1` (stereo unspecified) | 1.411% |
| 40 | `CN(C)CC1(O)CCN(C(=O)c2ccc(-n3cnnc3)cc2Cl)C1` (stereo unspecified) | -20.06% |
| 41 | `Cc1nc[nH]c1CN1CCn2nc(CN3Cc4ccccc4C3)cc2C1` | 7.677% |
| 42 | `CCCOCC1CCN(C(=O)c2cnc(-c3csc(C)n3)nc2O)C1` (stereo unspecified) | 13.92% |
| 43 | `CN(C)CCN1CCN(Cc2cccc(C#N)c2)Cc2cccnc21.O=C(O)C(F)(F)F.O=C(O)C(F)(F)F.O=C(O)C(F)(F)F` | -1.055% |
| 44 | `CNC(=O)CCNC(=O)c1ccccc1N1CCOCC1` | -10.33% & -2.131% |
| 45 | `NC(=O)c1cc(C2CCCN(C(=O)CCc3ccncc3)C2)n[nH]1` (stereo unspecified) | 17.99% |
| 46 | `CNC(=O)NC1CC2(CCNCC2)c2ccc(C)cc21` (stereo unspecified) | -37.99% |
| 47 | `COc1cccc(C(NCc2ccc(SC)cc2)c2nccn2C)c1` (stereo unspecified) | -8.656% |
| 48 | `O=C(Nc1ccc(I)cc1C(=O)NCCN1CCOCC1)c1cccs1` | 33.44% |
| 49 | `COc1ccnc(N2CCN(C(=O)c3csnn3)CC2)n1` | 6.21% |
| 50 | `CN(Cc1cnn(-c2ccccc2)n1)CC1CCCN1c1cccnn1` (stereo unspecified) | 23.06% |
| 51 | `CCc1ccccc1Nc1noc2c1CN(C(=O)c1ccn(C)n1)CC2` | -8.482% & -7.379% |
| 52 | `COc1ccc(CC(=O)N2CCCC(n3cc(C)cn3)C2)c(OC)c1` (stereo unspecified) | 11.22% |
| 53 | `COc1ccc(Oc2cc(CN)ccn2)cc1` | 26.15% |
| 54 | `Cc1ccc(NC(=O)CN2CCCNC2=O)c(SC(F)(F)F)c1` | -9.999% |
| 55 | `Cc1cc(N2CCC3(CC2)C(C(=O)O)CC(=O)N3C)nc2ccccc12` (stereo unspecified) | -11.53% |
| 56 | `Cc1cnn(CCNCc2c(C)nn(CCO)c2C)c1` | 0.002698% |

Repeated from the top, 5 entries:

SMILES,Percent Effect
c1ccc2sc(NCC3(N4CCOCC4)CCSC3)nc2c1 (stereo unspecified),2.182%
Cc1[nH]ncc1C(=O)N(CC(C)C)CC(O)c1ccc(F)cc1 (stereo unspecified),-37.81%
c1ccc(CCN2CCCC2c2ccnc(Nc3cnccn3)n2)cc1 (stereo unspecified),1.63%
c1cncc(CN2CCc3c(CNc4nccs4)n[nH]c3C2)c1,24.61%
Cc1cc2nc(CO[C@H]3CN(C4CCN(C)CC4)C[C@H]3F)[nH]c2cc1C,-24%

The values are deposited in ChEMBL (CHEMBL3988442, “University of Dundee, Small-Polar-MMV Screening Library” (2021)).